The values that follow come from publication PMC11809420.

By UniProt entry, the sequences of proteins in these tests, tags left out.
UniProt P35240: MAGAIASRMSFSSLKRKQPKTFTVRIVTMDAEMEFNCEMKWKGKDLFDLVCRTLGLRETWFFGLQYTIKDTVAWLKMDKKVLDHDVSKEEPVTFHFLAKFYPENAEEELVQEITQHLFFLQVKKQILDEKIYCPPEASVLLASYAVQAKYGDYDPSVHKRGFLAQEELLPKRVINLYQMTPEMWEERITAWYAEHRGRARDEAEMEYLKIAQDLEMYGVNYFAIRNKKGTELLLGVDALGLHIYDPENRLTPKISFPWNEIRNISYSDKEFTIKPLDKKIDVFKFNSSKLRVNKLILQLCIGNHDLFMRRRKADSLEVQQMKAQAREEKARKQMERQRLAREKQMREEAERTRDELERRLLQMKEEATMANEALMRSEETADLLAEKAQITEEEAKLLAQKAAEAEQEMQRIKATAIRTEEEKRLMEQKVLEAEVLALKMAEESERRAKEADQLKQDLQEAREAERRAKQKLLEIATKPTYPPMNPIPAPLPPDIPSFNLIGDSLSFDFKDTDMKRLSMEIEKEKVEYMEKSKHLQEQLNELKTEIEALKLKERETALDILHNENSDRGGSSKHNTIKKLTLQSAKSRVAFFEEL
UniProt Q9GZV5: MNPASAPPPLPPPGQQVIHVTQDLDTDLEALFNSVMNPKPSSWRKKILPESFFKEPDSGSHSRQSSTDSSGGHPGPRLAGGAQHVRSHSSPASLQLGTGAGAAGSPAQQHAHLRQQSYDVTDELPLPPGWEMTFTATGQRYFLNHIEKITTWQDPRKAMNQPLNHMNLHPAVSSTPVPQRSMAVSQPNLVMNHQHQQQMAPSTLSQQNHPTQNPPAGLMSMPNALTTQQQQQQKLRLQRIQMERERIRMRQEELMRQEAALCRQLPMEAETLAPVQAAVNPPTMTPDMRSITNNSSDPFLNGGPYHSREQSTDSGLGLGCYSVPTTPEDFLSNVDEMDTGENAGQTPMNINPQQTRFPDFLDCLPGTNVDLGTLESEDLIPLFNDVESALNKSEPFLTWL
UniProt P46937: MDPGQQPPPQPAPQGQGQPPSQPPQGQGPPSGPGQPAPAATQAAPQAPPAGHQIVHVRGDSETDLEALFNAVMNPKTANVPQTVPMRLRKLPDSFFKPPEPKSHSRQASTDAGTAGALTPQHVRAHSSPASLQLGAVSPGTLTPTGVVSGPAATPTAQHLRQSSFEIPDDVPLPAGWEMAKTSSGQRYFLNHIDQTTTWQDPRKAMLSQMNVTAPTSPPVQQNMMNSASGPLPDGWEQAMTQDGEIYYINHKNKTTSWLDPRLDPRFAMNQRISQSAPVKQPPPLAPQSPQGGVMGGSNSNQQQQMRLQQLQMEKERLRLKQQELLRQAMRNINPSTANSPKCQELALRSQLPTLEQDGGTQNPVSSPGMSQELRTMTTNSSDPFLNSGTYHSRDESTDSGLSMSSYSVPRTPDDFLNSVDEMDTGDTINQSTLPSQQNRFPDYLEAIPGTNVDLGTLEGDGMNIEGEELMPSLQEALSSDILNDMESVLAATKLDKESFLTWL

No constants are given. Whether binding was seen depends on the method and setting. Binding seen in cells or lysates may run through a third protein. Some entries that bind do so weakly or less than the wild type. For some assays here: Where a sequence is shown, tags or fusion partners need not be part of it.

The target in assay [1] is T1, ZDHHC15 as used in the GST pull-down assays (human) (UniProt Q96MV8).
T1 sequence: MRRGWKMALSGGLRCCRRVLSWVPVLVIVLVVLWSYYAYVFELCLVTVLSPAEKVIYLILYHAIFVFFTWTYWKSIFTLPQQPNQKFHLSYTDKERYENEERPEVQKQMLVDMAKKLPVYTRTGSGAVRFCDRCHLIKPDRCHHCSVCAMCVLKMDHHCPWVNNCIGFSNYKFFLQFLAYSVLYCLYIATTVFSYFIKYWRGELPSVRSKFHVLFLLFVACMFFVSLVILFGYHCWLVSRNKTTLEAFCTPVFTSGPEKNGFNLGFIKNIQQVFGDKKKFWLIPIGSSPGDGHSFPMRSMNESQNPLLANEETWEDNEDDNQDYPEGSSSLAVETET
As to the kind of experiment: pull-down; GST pull-down; constructs and conditions not told in the text shown.

The target of assay [2] is T2, V5-tagged ZDHHC15 (ZDHHC15-WT), expressed in HEK293T cells (human) (UniProt Q96MV8).
T2 sequence: T1 sequence
As to the kind of experiment: co-IP; V5-tagged ZDHHC15 with HA-, Flag- or Myc-tagged Hippo components in transfected HEK293T cells.

The target in assay [3] is Kidney and brain protein (KIBRA), endogenous (human (endogenous in HCC1954, TOV-112D, HEK-293T)) (UniProt Q8IX03). Put plainly: co-IP; endogenous proteins; HCC1954 and TOV-112D cells treated with MG132 (15 µM, 4 h); IP with anti-KIBRA or IgG, immunoblotting. On the technique in general: Immunoblotting shows a protein as a band on a membrane.

For the molecule “C2 domain (a.a. 658-785) of KIBRA as used in the GST pull-down assay (from UniProt Q8IX03 658-785) (domain or fragment)”, the binding entry in assay [1] is listed as “binds”. For the molecule “NF2/Merlin, tagged, expressed in HEK293T cells (from UniProt P35240 1-595)”, the binding entry in assay [2] is “no binding”. The same measure, in the same setting: as for “TAZ, tagged, expressed in HEK293T cells (from UniProt Q9GZV5 1-400)”, the entry is “no binding”; as for “YAP, tagged, expressed in HEK293T cells (from UniProt P46937 1-504)”, “no binding”.

B1: ZDHHC15, endogenous (enzyme, UniProt Q96MV8 1-337)
chain: T1 sequence
For B1, the binding entry in assay [3] is listed as “binds”.
